Measured values as given in US4599414A, “Theophylline derivatives” (Eisai Co., Ltd., priority 1979, dated 1986).
Where two headings read alike, the source gives them in different places.

Test system: contractile response to histamine, terminal ileum
Test: Antihistaminic action: inhibition of contractile response to histamine (10^-6 M) in isolated terminal ileum
Assay type: cell-based, guinea-pig
Conditions: for inhibition at 1 µM / inhibition at 0.1 µM: Cavia porcellus; for inhibition at 1 µM: antagonist 10^-6 M
Procedure: The terminal ileum was removed from a starved guinea-pig and set up in an organ bath containing Tyrode solution maintained at 26° C. Contractile tension was recorded isometrically under a tension of 1.5 g with a strain-gauge transducer. After obtaining control response to histamine (10^-6 M), antagonists were added to the bath and allowed to remain in contact with the tissue for 3 minutes. Contractile response to histamine in the presence of the antagonists was recorded and the inhibitory rate was calculated according to the following equation: [formula] The tissue was then washed at 10 min intervals with fresh Tyrode solution. Contractile response to histamine was tested after each wash in order to study the duration of action of the antagonists.

Question: How did the inhibition at 1 µM (0.05 h, 3 min contact, before washing, read-out: Inhibitory rate before washing) turn out when `C(=C\c1ccccc1)/CN1CCN(C(c2ccccc2)c2ccccc2)CC1` [(2), Cinnarizine, reference compound] was run?
Answer: The inhibition at 1 µM was 74%.

Question: What about the inhibition at 0.1 µM (0.05 h, antagonist 10^-7 M, 3 min contact, before washing, read-out: Inhibitory rate before washing) of the same compound?
Answer: The inhibition at 0.1 µM was 2%.

Question: What about the inhibition at 1 µM (after 1st washing, read-out: Inhibitory rate after 1st washing) of the same compound?
Answer: The inhibition at 1 µM was 81%.

Question: What about the inhibition at 1 µM (after 2nd washing, read-out: Inhibitory rate after 2nd washing) of the same compound?
Answer: Its inhibition at 1 µM is 71%.

Question: What about the inhibition at 1 µM (after 3rd washing, read-out: Inhibitory rate after 3rd washing) of the same compound?
Answer: The inhibition at 1 µM was 65%.

Question: What about the inhibition at 0.1 µM (antagonist 10^-7 M, after 1st washing, read-out: Inhibitory rate after 1st washing) of the same compound?
Answer: Its inhibition at 0.1 µM is 52%.

Question: What about the inhibition at 0.1 µM (antagonist 10^-7 M, after 2nd washing, read-out: Inhibitory rate after 2nd washing) of the same compound?
Answer: Its inhibition at 0.1 µM is 37%.

Question: What about the inhibition at 0.1 µM (antagonist 10^-7 M, after 3rd washing, read-out: Inhibitory rate after 3rd washing) of the same compound?
Answer: Its inhibition at 0.1 µM is 26%.

Question: What about the “Inhibitory rate after 4th washing” value (antagonist 10^-7 M, after 4th washing) of the same compound?
Answer: Its value is 19%.
